Our source for the TEAD-luciferase reporter activity values is the supplement of paper PMC10735217.

The test system of this test is HEK293A TEAD-LUC reporter. As to the kind of experiment: TEAD-luciferase reporter activity (YAP activation), robust Z score vs plate; higher = stronger YAP/TEAD activation. The note with it: 24 h. For orientation: A reporter such as luciferase makes a cellular process visible.

The other results are listed elsewhere or left out. Repeats in this data set agree poorly, so a single value says little.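 In a drug-repurposing library screen, luminescence reads luciferase driven by eight TEAD-binding elements, stably integrated into human kidney-derived cells. Compounds scoring over five robust Z scores above the plate mean are called hits.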

For the molecule `CN1CCN(c2c(F)cc3c(=O)c(C(=O)O)c4scc5n4c3c2OC5)CC1`, the TEAD-luciferase reporter activity (compound concentration: 200 nM) was inactive: 0.124, the TEAD-luciferase reporter activity (compound concentration: 2 uM) is inactive: 0.112 and the TEAD-luciferase reporter activity (compound concentration: 10 uM) is inactive: 0.00782.

As for `COc1ccc2c(c1)c(CC(=O)OC1OC(=O)c3ccccc31)c(C)n2C(=O)c1ccc(Cl)cc1` (configuration not stated), the TEAD-luciferase reporter activity is inactive: 0.386 (compound concentration: 200 nM), inactive: -0.513 (compound concentration: 2 uM) and inactive: -0.894 (compound concentration: 10 uM).

With `CCC(=O)O[C@]1(C(=O)COC(C)=O)CC[C@H]2[C@@H]3CCC4=CC(=O)CC[C@]4(C)[C@H]3[C@@H](O)C[C@@]21C` [Hydrocortisone aceponate], the TEAD-luciferase reporter activity runs as follows: (compound concentration: 200 nM) inactive: 2.87; (compound concentration: 2 uM) inactive: 0.734; (compound concentration: 10 uM) inactive: 0.0501.

Take `O=P(O)(O)C(O)(Cc1cnc2ccccn12)P(=O)(O)O` [minodronic acid]: the TEAD-luciferase reporter activity was inactive: 0.384 (compound concentration: 200 nM), inactive: -1.2 (compound concentration: 2 uM) and inactive: -0.309 (compound concentration: 10 uM).

On to `CCNC(=O)NC(=O)C(C)OC(=O)c1c2c(nc3ccccc13)/C(=C/c1ccc(OC)c(OC)c1)CC2` (configuration not stated), for which the TEAD-luciferase reporter activity reads like this: (compound concentration: 200 nM) inactive: -1.42; (compound concentration: 2 uM) inactive: -0.374; (compound concentration: 10 uM) inactive: -1.36.

As for `CC(C)(C)OC(=O)N[C@@H](Cc1ccccc1)[C@@H](O)CC(Cc1ccc(CCCO)cc1)C(=O)N[C@H]1c2ccccc2C[C@H]1O` (some centres not stated), the TEAD-luciferase reporter activity by setting is: (compound concentration: 200 nM) inactive: -0.0278; (compound concentration: 2 uM) inactive: -0.86; (compound concentration: 10 uM) inactive: -0.737.

As to `CCCCCCCCCCCCOc1ccc(NC(=N)N)cc1NC(=N)N`, the TEAD-luciferase reporter activity runs as follows: (compound concentration: 200 nM) inactive: 2.08; (compound concentration: 2 uM) inactive: -0.395; (compound concentration: 10 uM) inactive: 0.549.

Regarding `CCCC(=O)Nc1ccc(OCC(O)CNCCc2ccc(OC)c(OC)c2)c(-c2ccno2)c1` (configuration not stated) [Ecastolol], the TEAD-luciferase reporter activity was inactive: -0.348 (compound concentration: 200 nM), inactive: -1.12 (compound concentration: 2 uM) and inactive: -1.41 (compound concentration: 10 uM).

For `CCOc1ccc(N2C(=O)c3cccnc3NC2=C(C)N(Cc2cccnc2)C(=O)Cc2ccc(OC(F)(F)F)cc2)cc1`, the TEAD-luciferase reporter activity (compound concentration: 200 nM) was inactive: 1.42, the TEAD-luciferase reporter activity (compound concentration: 2 uM) was inactive: -1.22 and the TEAD-luciferase reporter activity (compound concentration: 10 uM) is inactive: -2.01.

Regarding `CCOC(=O)C1=Cc2cc(Cl)cc(Cl)c2OC1C(F)(F)F` (configuration not stated), the TEAD-luciferase reporter activity is inactive: -0.921 (compound concentration: 200 nM), inactive: -0.732 (compound concentration: 2 uM) and inactive: -0.806 (compound concentration: 10 uM).

Regarding `CCCC(=O)c1ccccc1OCCN(C(C)C)C(C)C` [ketocaine], the TEAD-luciferase reporter activity by setting is: (compound concentration: 200 nM) inactive: 0.768; (compound concentration: 2 uM) inactive: -0.91; (compound concentration: 10 uM) inactive: 0.343.

In the case of `O=C(Cn1cnnn1)N[C@@H]1C(=O)N2C(C(=O)O)=C(CSc3nncs3)CS[C@H]12`, the TEAD-luciferase reporter activity (compound concentration: 200 nM) is inactive: -0.262, the TEAD-luciferase reporter activity (compound concentration: 2 uM) is inactive: -1.18 and the TEAD-luciferase reporter activity (compound concentration: 10 uM) was inactive: 1.91.

Turning to `CCC(C)C(C#N)(CCN1CCCCC1)c1ccccc1` (configuration not stated), the TEAD-luciferase reporter activity by setting is: (compound concentration: 200 nM) inactive: 1.97; (compound concentration: 2 uM) inactive: 1.2; (compound concentration: 10 uM) inactive: -0.581.

As to `O=c1cc(C2Oc3cc(O)cc(O)c3CC2O)cc2c(C3Oc4cc(O)cc(O)c4CC3O)cc(O)c(O)c2c1O` (configuration not stated) [Theaflavin], the TEAD-luciferase reporter activity (compound concentration: 200 nM) is inactive: 0.352, the TEAD-luciferase reporter activity (compound concentration: 2 uM) was inactive: -1.4 and the TEAD-luciferase reporter activity (compound concentration: 10 uM) was inactive: -0.627.

On to `C(=C\c1ccccc1)/CN1CCN(C(c2ccccc2)c2ccccc2)CC1` [Cinnarizine], for which the TEAD-luciferase reporter activity by setting is: (compound concentration: 200 nM) inactive: -0.615; (compound concentration: 2 uM) inactive: -0.142; (compound concentration: 10 uM) inactive: 1.04.

Turning to `O=C(NCc1ccc(C(=O)O)cc1)NC[C@H]1CN(Cc2ccc(Cl)c(Cl)c2)CCO1`, the TEAD-luciferase reporter activity (compound concentration: 200 nM) was inactive: 0.987, the TEAD-luciferase reporter activity (compound concentration: 2 uM) was inactive: -0.871 and the TEAD-luciferase reporter activity (compound concentration: 10 uM) is inactive: -0.587.

On to `C#CC1(O)CCC2C3CCc4cc(OC5CCCC5)ccc4C3CCC21C` (configuration not stated) [quinestrol], for which the TEAD-luciferase reporter activity is inactive: -1.48 (compound concentration: 200 nM), inactive: -1.13 (compound concentration: 2 uM) and inactive: 1.59 (compound concentration: 10 uM).

In the case of `Cc1cc2c(-c3ccccc3F)nc(N3CCNCC3)nc2s1`, the TEAD-luciferase reporter activity by setting is: (compound concentration: 200 nM) inactive: -0.125; (compound concentration: 2 uM) inactive: 1.33; (compound concentration: 10 uM) inactive: 0.292.

Turning to `CC(CN1c2ccccc2Sc2ccccc21)[N+](C)(C)C` (configuration not stated) [thiazinamium chloride], the TEAD-luciferase reporter activity is inactive: -1.51 (compound concentration: 200 nM), inactive: 2.34 (compound concentration: 2 uM) and inactive: 0.603 (compound concentration: 10 uM).

Take `Cn1nnnc1SCC1=C(C(=O)O)N2C(=O)[C@@H](NC(=O)[C@H](OC=O)c3ccccc3)[C@H]2SC1` [Cefamandole nafate]: the TEAD-luciferase reporter activity by setting is: (compound concentration: 200 nM) inactive: -0.667; (compound concentration: 2 uM) inactive: -0.464; (compound concentration: 10 uM) active: 7.44.

As for `O=C(O)c1ccc(S(=O)(=O)N(Cl)Cl)cc1`, the TEAD-luciferase reporter activity runs as follows: (compound concentration: 200 nM) inactive: -2.15; (compound concentration: 2 uM) inactive: -0.882; (compound concentration: 10 uM) inactive: -0.643.

For `O=C(O)c1ccc(SSc2ccc(C(=O)O)cn2)nc1`, the TEAD-luciferase reporter activity runs as follows: (compound concentration: 200 nM) inactive: -1.35; (compound concentration: 2 uM) inactive: -1.09; (compound concentration: 10 uM) inactive: 2.23.

`CCOc1ccc(C(=O)Nc2ccccc2OC(=O)c2ccc(OCC)cc2)cc1`: the TEAD-luciferase reporter activity by setting is: (compound concentration: 200 nM) inactive: -1.03; (compound concentration: 2 uM) inactive: -0.16; (compound concentration: 10 uM) inactive: 1.47.

As to `CC(C)(CCCCOc1ccc(OCCCCCn2ccnc2)cc1)C(=O)O`, the TEAD-luciferase reporter activity runs as follows: (compound concentration: 200 nM) inactive: -1.44; (compound concentration: 2 uM) inactive: 0.592; (compound concentration: 10 uM) inactive: 0.89.
